Test results published in PMC2263054, “Functional evolution of the vitamin D and pregnane X receptors” (BMC Evolutionary Biology, 2007).

Columns and labels:
Format in all cases: cell-based
Conditions in all cases: screening for activators, at least three concentrations of each drug
Xenopus laevis VDR = biological target: T1, Xenopus laevis VDR (Xenopus laevis, UniProt O13124); assay: luciferase reporter transactivation assay in HepG2-NTCP cells, GAL4/xlVDR LBD chimera with tk-UAS-Luc
T1 sequence (O13124 90-422): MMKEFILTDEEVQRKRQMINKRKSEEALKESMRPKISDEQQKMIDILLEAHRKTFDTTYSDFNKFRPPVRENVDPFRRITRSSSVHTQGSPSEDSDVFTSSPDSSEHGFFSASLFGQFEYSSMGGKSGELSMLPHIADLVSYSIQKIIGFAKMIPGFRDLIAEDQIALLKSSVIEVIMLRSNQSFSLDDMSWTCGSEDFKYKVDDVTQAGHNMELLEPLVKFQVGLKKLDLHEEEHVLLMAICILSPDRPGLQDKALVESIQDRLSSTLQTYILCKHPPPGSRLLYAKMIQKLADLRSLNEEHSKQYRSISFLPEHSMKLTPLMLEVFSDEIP

Zebrafish VDR = biological target: T2, Zebrafish VDR (Danio rerio, UniProt Q9PTN2); assay: luciferase reporter transactivation assay in HepG2-NTCP cells, GAL4/zfVDR LBD chimera with tk-UAS-Luc
T2 sequence (Q9PTN2 121-453): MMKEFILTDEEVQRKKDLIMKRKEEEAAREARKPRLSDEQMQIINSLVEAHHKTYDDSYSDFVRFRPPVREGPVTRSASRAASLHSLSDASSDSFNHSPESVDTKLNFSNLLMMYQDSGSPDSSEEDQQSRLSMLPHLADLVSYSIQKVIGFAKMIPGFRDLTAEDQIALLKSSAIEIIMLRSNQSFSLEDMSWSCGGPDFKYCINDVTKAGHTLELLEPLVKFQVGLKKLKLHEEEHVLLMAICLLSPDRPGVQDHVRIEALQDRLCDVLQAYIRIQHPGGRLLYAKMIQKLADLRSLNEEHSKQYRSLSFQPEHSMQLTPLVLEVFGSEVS

Sea lamprey VDR = biological target: T3, Sea lamprey VDR (Petromyzon marinus, UniProt Q7ZZY9)
T3 sequence (Q7ZZY9 92-406): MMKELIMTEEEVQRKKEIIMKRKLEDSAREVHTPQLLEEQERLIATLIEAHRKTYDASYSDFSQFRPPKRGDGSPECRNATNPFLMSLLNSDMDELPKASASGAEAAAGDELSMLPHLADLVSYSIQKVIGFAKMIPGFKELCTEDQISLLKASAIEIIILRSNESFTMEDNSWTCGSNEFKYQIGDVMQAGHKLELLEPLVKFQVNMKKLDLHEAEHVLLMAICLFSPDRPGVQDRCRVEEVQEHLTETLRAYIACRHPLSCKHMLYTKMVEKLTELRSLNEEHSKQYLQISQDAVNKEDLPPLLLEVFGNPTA

COC(=O)C1=C(C)NC(C)=C(C(=O)OC)C1c1ccccc1[N+](=O)[O-] [Nifedipine]
No effect: Effect on Xenopus laevis VDR (Xenopus laevis VDR) | Effect on zebrafish VDR (Zebrafish VDR) | Effect on sea lamprey VDR (Sea lamprey VDR)
